Data from publication PMC12506653.
Results are given in words; binding and its absence hold for the method and conditions named. In cells and extracts the contact can be indirect. Binding calls can cover weak binding; strength is not graded here. Sequences can lack the tags named with a protein.

Amino acid sequences for entries named in this document (tags omitted). A change or cut given only in a name is not applied to a line headed by its entry.
UniProt G5EF06: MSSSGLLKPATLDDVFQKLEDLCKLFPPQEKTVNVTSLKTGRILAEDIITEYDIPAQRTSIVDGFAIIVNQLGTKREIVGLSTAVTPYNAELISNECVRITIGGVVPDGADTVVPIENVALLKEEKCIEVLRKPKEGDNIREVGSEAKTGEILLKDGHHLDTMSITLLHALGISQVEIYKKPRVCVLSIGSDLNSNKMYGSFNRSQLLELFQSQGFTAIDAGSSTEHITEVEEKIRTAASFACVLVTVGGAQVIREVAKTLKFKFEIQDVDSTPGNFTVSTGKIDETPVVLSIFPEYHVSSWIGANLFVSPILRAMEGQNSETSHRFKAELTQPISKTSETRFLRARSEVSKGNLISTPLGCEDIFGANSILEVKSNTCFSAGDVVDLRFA

Molecular target: LIN-46 (as used in the GST pull down) (C. elegans) (UniProt G5EF06)
Assay: pull-down; GST pull down in vitro; constructs and conditions not told

binding: binds
B1: HBL-1 (as used in the GST pull down) (protein, UniProt Q9XYD3 1-982)
chain: MVQSDSPEELAQRAKPAWRLQQMPVQLSNFVSKTPLIGSEWPPTGDWRSANNNSLGDWNKCCVPGSEIPQHLGPFGNSSLTMLTAQQPGEKIHPDGGYVSPKEDGRKSSEHTNSYDVSASQSPSNDGAQSDSTSDEHIDVECMTETEMDTDEKDSTIKPEDQATPKLEEGSDSKPESTSVEGTSSNYQVTSEPVQMPQMPIPVIPSFLKNSLPAPIPITPTQSANVERSNSPSIEEALLLTLSQQQFAEVFAEAAKIRKSSSESIGFQRSGTSAFLNIEPKEMSMSSANNNNEEAPASTVSACSTPTTTTSASFCRPPGLGPVALPPTQNGQTPMLVCPICGFMCPSKFHFNSHMNTHGDHQCSMCDYTSRTEGRLKKHMRESHTVEEQLRAGFESEPAKESASSPKNLSLSKDGSATSPINEIFNLSTTMASILDSTNNAVSSTSTTEQPSALSALTLDMSSTPSLLSTLAHSSFGVSALDQIKAISENPSFMPEGGINLASALGVVSNAIKGDTPSPEKQSNGECRRSSSGKIKIFKCKQCGHQSLSKDDQWAHARTHIPAEKQLNCQHCNFVTEYKHHLEYHYRNHIGSKPFQCKKCAYNCVNKSMLNSHMKSHTNHYQFRCMDCTYATKYCHSLKLHLKKYNHRRVPEGIEMSGGDSSPPFTSDATITFSPLMKQEIKTETVEPVTSIAQPFPFNPMMGNHGLNFANHMLLNKHLDVGLMGLRNSVMSPLKCSACDFVASSADEKMRHSMSHILNSSNVPTSIASLYNSLNLPSFSHVAPDNDNALESMDCDVKIDDDNITESHCYEEMDQGSDSAVSPTGSSQISSGDEETKKCKSLSLEQISARANGNNSPMSNDSAMEKDGESADDAPHSPSDTTSVPSPPLHSSSIVAPIPITPQPNEFLQSILAQASLLGPLLANRPSAFYCDHCKIPFDTQQVLDSHMRFHTPGNPFMCSDCQYQAFNELSFALHMYQARHQ
